MtTrpRS: 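Enzyme assay of tryptophanyl-tRNA synthetase; the read-out is not stated. Target: Tryptophan-tRNA ligase, Mycobacterium tuberculosis (UniProt P9WFT3). Compounds at 10 µM. Direction is not recorded; retested compounds ran higher, which suggests that high means inhibition. About 65,000 compounds were tested under these conditions; 0.098% (about 64) showed 50% or more at least once.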
PfKRS1: 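Enzyme assay of the cytosolic lysyl-tRNA synthetase in 384-well plates, read by luminescence. Target: Lysine-tRNA ligase, Plasmodium falciparum 3D7 (UniProt Q8IDJ8). Tested at 30 µM. Higher reads as stronger inhibition, judged from the few compounds that gave an IC50. Of about 69,000 compounds tested this way, about 49 (0.071%) reached 50% or more in at least one test.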
ClpP1P2: 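Protease assay of ClpP1P2, read by the AMC dye that it sets free. Target: ClpP1P2, Mycobacterium tuberculosis (UniProt P9WPC5 and UniProt P9WPC3). Concentration: 50 µM. Higher reads as stronger inhibition, judged from the few compounds that gave an IC50. Most other retested compounds had strongly negative values. Size under these conditions: about 69,000 compounds, about 10 of them at 50% or above in at least one test.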

Protein sequences, listed by entry. Tags and fused reporters are not part of them. Residues count along the entry.
UniProt P9WFT3, whole entry: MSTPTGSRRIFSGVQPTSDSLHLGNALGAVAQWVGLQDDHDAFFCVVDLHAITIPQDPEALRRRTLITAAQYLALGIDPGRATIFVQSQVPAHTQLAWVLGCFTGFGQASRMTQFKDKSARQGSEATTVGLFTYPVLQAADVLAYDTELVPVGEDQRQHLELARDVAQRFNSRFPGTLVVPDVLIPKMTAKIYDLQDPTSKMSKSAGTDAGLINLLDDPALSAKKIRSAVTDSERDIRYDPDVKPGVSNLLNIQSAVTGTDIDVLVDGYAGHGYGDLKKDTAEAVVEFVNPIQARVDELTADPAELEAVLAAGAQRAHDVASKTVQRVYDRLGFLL
UniProt Q8IDJ8, 1-583: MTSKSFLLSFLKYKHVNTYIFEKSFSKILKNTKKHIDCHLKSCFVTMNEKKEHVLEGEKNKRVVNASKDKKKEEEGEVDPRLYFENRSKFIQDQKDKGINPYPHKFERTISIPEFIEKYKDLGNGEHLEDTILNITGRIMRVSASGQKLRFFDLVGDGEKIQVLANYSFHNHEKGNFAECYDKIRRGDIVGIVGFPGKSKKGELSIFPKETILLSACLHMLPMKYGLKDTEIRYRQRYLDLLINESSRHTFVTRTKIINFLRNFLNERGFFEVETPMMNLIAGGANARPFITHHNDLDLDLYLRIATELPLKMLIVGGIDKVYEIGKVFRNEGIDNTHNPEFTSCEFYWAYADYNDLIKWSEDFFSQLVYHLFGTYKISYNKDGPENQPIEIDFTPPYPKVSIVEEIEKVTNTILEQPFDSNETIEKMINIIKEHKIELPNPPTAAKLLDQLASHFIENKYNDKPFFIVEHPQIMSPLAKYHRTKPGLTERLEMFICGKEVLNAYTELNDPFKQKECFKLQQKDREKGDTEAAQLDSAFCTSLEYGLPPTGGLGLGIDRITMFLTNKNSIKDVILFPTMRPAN
UniProt P9WPC5, whole entry: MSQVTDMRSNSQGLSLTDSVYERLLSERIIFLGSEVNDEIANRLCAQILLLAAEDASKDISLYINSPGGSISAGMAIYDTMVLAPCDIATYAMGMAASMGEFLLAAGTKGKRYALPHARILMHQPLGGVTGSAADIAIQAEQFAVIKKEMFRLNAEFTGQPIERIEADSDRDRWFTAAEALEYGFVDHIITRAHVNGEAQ
UniProt P9WPC3, whole entry partner: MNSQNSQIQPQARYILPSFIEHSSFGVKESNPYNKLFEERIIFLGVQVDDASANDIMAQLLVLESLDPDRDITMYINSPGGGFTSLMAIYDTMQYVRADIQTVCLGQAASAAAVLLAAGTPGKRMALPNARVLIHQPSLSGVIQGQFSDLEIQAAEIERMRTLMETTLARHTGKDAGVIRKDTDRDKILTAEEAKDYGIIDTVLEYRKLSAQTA

Values are the deposited “Percent Effect”, in %.
The controls that fix the scale are not given in the record; negative values are as filed.
The compounds are a random part of those screened.

structure,MtTrpRS,PfKRS1,ClpP1P2
c1ccc(-c2ncc3c(n2)C2(CCN(c4ncccn4)C2)COC3)cc1 (centres unmarked),2.008,3.844,-3.909
COc1ccc(N2Cc3nc(N)ncc3C2=O)cc1,0.678,-2.833,-8.805
CCC(CO)N(Cc1ccncc1)Cc1c[nH]nc1-c1ccc(F)cc1 (centres unmarked),-8.836,4.532,-4.181
CS(=O)(=O)c1ccc(NC(=O)NC2(c3cccc(F)c3)CC2)cc1,-7.005,1.137,-22.6
CCCS(=O)(=O)N1CCC2(CC1)COCCN(C(C)=O)C2,2.265,12.42,-0.7142
CNC(=O)c1ccc(Cn2ccnc2S(C)(=O)=O)cc1,0.5128,5.116,-3.964
CC(C(=O)N1CCN(Cc2ccc3c(c2)OCO3)CC1)n1ccnc1 (centres unmarked),-3.453,-1.381,-24.92
Cn1nnc(NCc2ccc(-c3ccc(Cl)cc3)o2)n1,-2.25,8.646,5.637
CCCOc1c(CNC2CCSC2)cccc1OC (centres unmarked),3.73,3.211,0.09844
CCOC(=O)C1CCN(Cc2csc(-c3ccc(C)o3)n2)CC1,-5.495,-1.675,-9.969
Cn1nnc2c1C(COCc1ccccn1)CN(C(=O)c1cccs1)C2 (centres unmarked),2.056,1.269,8.04
COc1cc(CN(C)C(=O)NCc2nccs2)ccc1SC,-3.835,1.398,2.348
O=C(CCN1CCc2cncnc2C1)N1CCc2sccc2C1,0.3915,-0.3027,-17.76
Cc1ccc(C(=O)N2CCC3(CC2)CC(NC(=O)C(C)C)CO3)cc1 (centres unmarked),1.051,2.455,3.652
COc1ccc(CN2C[C@H]3CN(C(=O)c4ccno4)CCN3C2=O)cc1,-1.883,8.721,-0.8672
Cc1ccc(NC2(C(=O)NC(C)c3ncn[nH]3)CCCC2)cc1 (centres unmarked),8.355,1.146,-8.168
COCCN1CCCC(O)(CN2CCN(c3cc(C)ccn3)CC2)C1=O (centres unmarked),0.486,4.722,-4.75
CCc1ccccc1Nc1noc2c1CN(C(=O)C1CCCO1)CC2 (centres unmarked),-2.029,2.097,6.958
CCNc1ncc(C(=O)N2CCc3c(nc(C)nc3N(C)C)C2)cn1,5.76,-6.903,11.69
COCc1nc2cc(NCc3csc(C)n3)ccc2o1,-15.88,10.71,-1.995
CCN(c1ccc(C(=O)NCCCN2CCOCC2)cc1)S(=O)(=O)CC,5.191,-3.726,5.15
CCN(CCn1cccn1)Cc1nc(-c2cccc(C)c2)oc1C,-0.09234,0.7197,-12.63
O=C(c1cnn[nH]1)N(Cc1ccncc1)CC1CCCO1 (centres unmarked),-3.043,4.943,8.616
Cc1nc(S(=O)(=O)CCn2cccn2)n(CC2CCCO2)c1C (centres unmarked),-2.882,5.242,-5.743
Cn1ccc2cc(C(=O)NC3CCS(=O)(=O)C3)ccc21 (centres unmarked),2.287,0.8526,-5.918
CC(=O)N(C)C1CCN(C(=O)c2cccc3c2ccn3C)CC1,7.464,2.673,0.2399
Cn1ncc2c(=O)[nH]c(CN3CCCC3c3cccs3)nc21 (centres unmarked),0.5508,17.22,-0.2
CNC(=O)c1nc(CN2CCOC(Cc3ccc(F)cc3)C2)no1 (centres unmarked),-1.31,1.176,7.29
Cc1nc(-c2cnn(C)c2)sc1C(=O)NCc1ccc(C)n1C,7.158,9.931,5.432
O=C(c1c[nH]c(=O)c(Cl)c1)N1C[C@@H]2CC[C@H](C1)N(Cc1ccccc1)C2,2.549,3.853,0.1693
COc1cccc(CN2CCCC3(CCN(C(=O)c4ccco4)C3)C2)c1 (centres unmarked),1.45,-2.353,6.998
N#Cc1nccnc1NCCC1CCN(CC(F)(F)F)CC1,-3.483,2.906,-36.2
Cc1cc(C(=O)N2CCC(C)CC2)ccc1NS(C)(=O)=O,-4.42,2.635,-19.34
Cc1nc(C)n(CC(=O)N2CCCC(c3nc(C)n4c(C)csc34)C2)n1 (centres unmarked),-10.92,-0.1752,-13.44
Cc1cc(-c2cnc(NC3CC3)nc2-c2ccc(C)o2)on1,-3.524,3.73,3.004
Cc1nnc2n1CCN(C(=O)c1cc(Br)c(Cl)[nH]1)C2,1.456,0.3736,-14.73
CC(C)Cn1cncc1CNC(=O)c1cccc(Cn2cccn2)c1,-2.355,2.563,-4.43

5 of the entries, repeated:

structure,MtTrpRS,PfKRS1,ClpP1P2
Cc1nc(-c2cnn(C)c2)sc1C(=O)NCc1ccc(C)n1C,7.158,9.931,5.432
CCN(CCn1cccn1)Cc1nc(-c2cccc(C)c2)oc1C,-0.09234,0.7197,-12.63
Cc1nc(C)n(CC(=O)N2CCCC(c3nc(C)n4c(C)csc34)C2)n1 (centres unmarked),-10.92,-0.1752,-13.44
CCN(c1ccc(C(=O)NCCCN2CCOCC2)cc1)S(=O)(=O)CC,5.191,-3.726,5.15
Cn1ncc2c(=O)[nH]c(CN3CCCC3c3cccs3)nc21 (centres unmarked),0.5508,17.22,-0.2

Data taken from ChEMBL document CHEMBL3988442, “University of Dundee, Small-Polar-MMV Screening Library” (2021).